# According to US20110039721A1, “METHOD FOR PREDICTION ABOUT CARCINOGENICITY OF SUBSTANCE IN RODENT” (Chemicals Evaluation and Research Institute, priority 2007, published 2011):
# Counter-ions that a name gives are not always drawn.
# Test system: mRNA expressed from the genes (A) to (D) in rat liver
# Test: Behavior of genes (mRNA expression level, oligo-DNA microarray) in rat liver after 28-day oral administration
# Format: in vivo
# Conditions: oral once daily 28 days
# Experimental: A test solution was prepared by dissolving each of the carcinogens and the non-carcinogens shown in Tables 2 to 6 in the corresponding solvent shown in Tables 2 to 6. Each of the thus prepared test solutions and the solvents used for the preparation was administered by oral gavage to rats in each group. As the rats, male rats (F344 SPF rats) at 5 weeks of age obtained from Charles River Laboratories Japan, Inc. were used. The animals were divided into groups, each containing four individuals. The volume of the solvent administered to the vehicle control group was set to the same volume as that of the test solution administered to the carcinogen administration group or the non-carcinogen administration group. The administration of the test solution or the solvent was performed once daily for 28 days. Apiece was excised from the liver of each of the rats after a lapse of 28 days from the initiation of the administration, and the total RNA was extracted and purified.
# The expression level of mRNA was compared between each of the chemical substance administration groups and the corresponding vehicle control group, and genes that satisfy the requirements described in (A) to (D) were selected, respectively.
# The case where the expression level of mRNA in the carcinogen administration group or the non-carcinogen administration group is 1.5 times or more or 1/1.5 or less of the expression level of the corresponding mRNA expressed in the control group was determined to be significant. In this connection, the determination as to whether or not the change is significant was performed by taking into consideration the direction of increase or decrease in the expression level. In the case where the direction of increase or decrease is different as compared with the case where another carcinogen was administered, the change was determined to be not significant.
# [1] = (C), Unigene Rn.120914, defined direction +
compound,measurement,setting,value
"CN(C)CCN(Cc1cccs1)c1ccccn1 [TS053, Methapyrilene HCl]","Behavior of gene caused by administration of chemical substance, Gene No. 4846","(A), Unigene Rn.144554, defined direction +",+
same,"Behavior of gene caused by administration of chemical substance, Gene No. 4218","(A), Unigene Rn.167075, defined direction +, significant = 1.5 times or more or 1/1.5 or less of control",+
same,"Behavior of gene caused by administration of chemical substance, Gene No. 2026","(A), Unigene Rn.167075, defined direction −",+
same,"Behavior of gene caused by administration of chemical substance, Gene No. 6182","(A), Unigene Rn.5834, defined direction +",+
same,"Behavior of gene caused by administration of chemical substance, Gene No. 5600","(A), Unigene Rn.9836, defined direction +",+
same,"Behavior of gene caused by administration of chemical substance, Gene No. 1494","(B), Unigene Rn.1430, defined direction −",+
same,"Behavior of gene caused by administration of chemical substance, Gene No. 2045","(B), Unigene Rn.19329, defined direction +",−
same,"Behavior of gene caused by administration of chemical substance, Gene No. 2203","(B), Unigene Rn.21240, defined direction +",−
same,"Behavior of gene caused by administration of chemical substance, Gene No. 533","(C), Unigene Rn.106184, defined direction +",+
same,"Behavior of gene caused by administration of chemical substance, Gene No. 725","(C), Unigene Rn.108075, defined direction −",−
same,"Behavior of gene caused by administration of chemical substance, Gene No. 1163","(C), Unigene Rn.11766, defined direction +",−
same,"Behavior of gene caused by administration of chemical substance, Gene No. 4973","(C), Unigene Rn.118529, defined direction −",+
same,"Behavior of gene caused by administration of chemical substance, Gene No. 4095","(C), Unigene Rn.119024, defined direction −",+
same,"Behavior of gene caused by administration of chemical substance, Gene No. 1334",[1],−
same,"Behavior of gene caused by administration of chemical substance, Gene No. 6620",[1],−
same,"Behavior of gene caused by administration of chemical substance, Gene No. 6303","(C), Unigene Rn.123063, defined direction −",+
same,"Behavior of gene caused by administration of chemical substance, Gene No. 5878","(C), Unigene Rn.143213, defined direction −",+
same,"Behavior of gene caused by administration of chemical substance, Gene No. 1131","(C), Unigene Rn.144946, defined direction −",−
same,"Behavior of gene caused by administration of chemical substance, Gene No. 1562","(C), Unigene Rn.14744, defined direction −",+
same,"Behavior of gene caused by administration of chemical substance, Gene No. 1741","(C), Unigene Rn.1647, defined direction −",+
same,"Behavior of gene caused by administration of chemical substance, Gene No. 893","(C), Unigene Rn.164817, defined direction +",+
same,"Behavior of gene caused by administration of chemical substance, Gene No. 6026","(C), Unigene Rn.167685, defined direction −",+
same,"Behavior of gene caused by administration of chemical substance, Gene No. 154","(C), Unigene Rn.185941, defined direction −",+
same,"Behavior of gene caused by administration of chemical substance, Gene No. 1993","(C), Unigene Rn.18728, defined direction −",+
same,"Behavior of gene caused by administration of chemical substance, Gene No. 813","(C), Unigene Rn.201760, defined direction +",−
same,"Behavior of gene caused by administration of chemical substance, Gene No. 2494","(C), Unigene Rn.23969, defined direction +",+
same,"Behavior of gene caused by administration of chemical substance, Gene No. 2546","(C), Unigene Rn.24561, defined direction −",+
same,"Behavior of gene caused by administration of chemical substance, Gene No. 3776","(C), Unigene Rn.43232, defined direction −",+
same,"Behavior of gene caused by administration of chemical substance, Gene No. 3929","(C), Unigene Rn.4620, defined direction +",−
same,"Behavior of gene caused by administration of chemical substance, Gene No. 1119","(C), Unigene Rn.9757, defined direction +",+
same,"Behavior of gene caused by administration of chemical substance, Gene No. 6742","(C), Unigene Rn.9779, defined direction +",−
same,"Behavior of gene caused by administration of chemical substance, Gene No. 5634","(C), Unigene Rn.9862, defined direction −",+
same,"Behavior of gene caused by administration of chemical substance, Gene No. 5726","(D), Unigene Rn.9939, defined direction −",−
